Data from US10620225B2, “Detection of polymyxins” (Randox Laboratories Limited, priority 2014, dated 2020).

Tested on: Polymyxin B derived antibody
Assay: Competitive biochip immunoassay, standard curves with Polymyxin B derived antibody and Colistin-based tracer
Type: binding, sheep
Protocol: The process of developing an immunoassay is well known to the person skilled in the art. Briefly, for a competitive immunoassay in which the target analyte is a non-immunogenic molecule such as a hapten, a general immunoassay development process outlined. Following antibody production, a detecting agent is added to a sample containing the target analyte and the raised antibodies, and the detecting agent and analyte compete for binding to the antibodies. The process may comprise fixing said serum antibodies to a solid state device such as a polystyrene support or a ceramic chip. The antibodies can be polyclonal or monoclonal using standard techniques, but the current invention makes use of polyclonal antibodies. The signal emitted in the immunoassay is proportionate to the quantity of detecting agent bound to the antibodies which in turn is inversely proportionate to the analyte concentration. The signal can be detected or quantified by comparison with a calibrator.
175 μl of assay diluent, then 25 μl of Polymyxin diluted in calibrator base was added to the appropriate wells. Biochips spotted with antibody of the invention were incubated for 30 min at 25° C. in a thermo-shaker at 370 rpm. 100 μl Tracer of the invention was added to the appropriate wells. Biochips were incubated for 60 min at 25° C. in a thermo-shaker at 370 rpm. Biochips were washed with TBST (2 quick washes followed by 4 washes at 2 min intervals). Biochips were developed with 250 μl signal: peroxide (1:1) for 2 min in the dark. Biochips were imaged on the Randox Investigator (2×60 sec images). All biochips were manually processed.

Row | Substance | RLU (standard conc 0.391 ng/ml) | RLU (standard conc 0.781 ng/ml) | RLU (standard conc 1.563 ng/ml) | RLU (standard conc 3.125 ng/ml) | RLU (standard conc 6.250 ng/ml) | RLU (standard conc 12.500 ng/ml) | RLU (standard conc 25.000 ng/ml) | RLU (standard conc 50.000 ng/ml) | RLU (standard conc 0.078 ng/ml) | RLU (standard conc 0.156 ng/ml) | RLU (standard conc 0.313 ng/ml) | RLU (standard conc 0.625 ng/ml) | RLU (standard conc 1.250 ng/ml) | RLU (standard conc 2.500 ng/ml) | RLU (standard conc 5.000 ng/ml) | RLU (standard conc 10.000 ng/ml)
1 | Colistin | 6524 | 5297 | 4046 | 3034 | 1586 | 1029 | 799 | 574 | – | – | – | – | – | – | – | –
2 | Polymyxin B | – | – | – | – | – | – | – | – | 7380 | 6651 | 5449 | 4771 | 4327 | 3275 | 2307 | 1400
